# Binding screen against folded nucleic acids

From ROBIN, a set of small-molecule microarray screens (doi:10.1002/anie.202211358).

Oligonucleotides screened, 5′ to 3′:
SAM-II: SAM-II riboswitch RNA pseudoknot, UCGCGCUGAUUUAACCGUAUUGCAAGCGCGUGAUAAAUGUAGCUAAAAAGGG. About 200 hits among about 21,000 compounds.
TPP: TPP riboswitch RNA three-way junction, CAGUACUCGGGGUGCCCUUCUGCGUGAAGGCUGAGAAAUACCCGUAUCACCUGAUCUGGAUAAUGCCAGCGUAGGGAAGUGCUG. About 160 hits among about 24,000 compounds.
PreQ1: PreQ1 riboswitch RNA pseudoknot, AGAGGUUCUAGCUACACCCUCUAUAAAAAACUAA. From B. subtilis. About 170 hits among about 24,000 compounds.

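The test is a small-molecule microarray: each compound is printed twice on a reactive slide, and binding shows as fluorescence of the labelled oligonucleotide after washing. The data file lists only calls. An earlier report of the laboratory on the PreQ1, TPP and SAM-II riboswitches (doi:10.1038/s41467-019-09493-3) used 1 µM RNA for 2 h and required a mean Z-score above 3 (spot signal-to-noise against the whole library), a score well above that on a control array, and duplicate spots agreeing (coefficient of variation under 100); it then also set aside compounds that hit other targets, which this list keeps. The cut-offs behind this list may differ. The calls come from the array alone, and fixing a compound to the slide can hide its binding.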
A compound is marked Y if it was called a hit and N if it was screened but was not.
This is an unselected part of the compounds tested.
A dash means that no call is listed here.

| # | Compound | SAM-II | TPP | PreQ1 |
|---|---|---|---|---|
| 1 | `CCn1c(N)nc2cc(C(=O)NCCN3CCOC3=O)cnc21` | N | N | N |
| 2 | `OC[C@]12CCCN[C@@H]1CCN(Cc1ccc(OCc3ccccn3)cc1)C2` | N | N | N |
| 3 | `COC(=O)C1=C(N)OC(C)=C(C(=O)OCc2ccccc2)C12C(=O)N(C)c1ccccc12` (stereo unspecified) | N | N | N |
| 4 | `CCNC(=O)[C@@H]1C[C@H](Nc2cc(C)nc(N)n2)CN1Cc1ccc(C)o1` | N | N | N |
| 5 | `CCN1CCN(CC(O)COc2c(F)cc(Br)cc2F)CC1.Cl.Cl` (stereo unspecified) | N | N | N |
| 6 | `CC(C)(C)c1n[nH]c2c1C(c1ccccc1Cl)C(C#N)=C(N)O2` (stereo unspecified) | N | N | N |
| 7 | `Cc1nc(-c2cn([C@H]3CC[C@@H](N)CC3)nn2)n(CC(F)(F)F)n1` | N | N | N |
| 8 | `Cc1cc(C(=O)N(C)CC2CCCNC2)c2cccc(C)c2n1` (stereo unspecified) | N | N | N |
| 9 | `COc1cc(CNC(C)(C)CO)ccc1OCc1ccc2c(c1)n(C)c(=O)n2C` | - | N | N |
| 10 | `O=C(Cn1cc(CO)c2ccccc21)Nc1ccc(F)cc1` | N | N | N |
| 11 | `Cc1cc(Nc2ccccc2Br)n2nc(C)nc2n1` | N | N | N |
| 12 | `CCC(O)c1nc2ccccc2n1Cc1ccc(Br)cc1` (stereo unspecified) | - | N | N |
| 13 | `CCOC(=O)c1cnn(-c2cc(C)nc3c(-c4ccc(F)cc4)c(CC)nn23)c1N` | - | N | N |
| 14 | `CCOC(=O)c1sc2nc(-c3ccccc3)ccc2c1N` | N | N | N |
| 15 | `CCC(=O)OCC(=O)[C@@]1(OC(=O)CC)[C@@H](C)C[C@H]2[C@@H]3CCC4=CC(=O)C=C[C@]4(C)[C@@]3(F)[C@@H](O)C[C@@]21C` | N | N | N |
| 16 | `CCC(O)c1nc2ccccc2n1Cc1ccccc1F` (stereo unspecified) | - | N | N |
| 17 | `C(COC1CC2CC1C1C2CC2OC21)OC1CC2CC1C1C2CC2OC21` (stereo unspecified) | N | N | N |
| 18 | `O=C(c1ccc(C2CCCNC2)cc1)N1CCN(c2ccncc2)CC1` (stereo unspecified) | N | N | N |
| 19 | `C[CH2][Ge]([CH2]C)([CH2]C)[c]1nn[nH]c1CNc1ccccc1` | N | N | N |
| 20 | `CCOc1ccc(C2C(C#N)=C(N)N(c3ccc(F)cc3)C3=C2S(=O)(=O)CC3)cc1` (stereo unspecified) | N | N | N |
| 21 | `Nc1nnc(SCC(=O)Nc2nnc(-c3ccccc3)s2)s1` | N | N | N |
| 22 | `Cc1cccc(Cn2nnc(C(=O)Nc3cccc(C)c3)c2N)c1` | N | N | N |
| 23 | `CCc1n[nH]c2c1C(c1c(F)cccc1Cl)C(C#N)=C(N)O2` (stereo unspecified) | N | N | N |
| 24 | `c1ccc(CNCC2OCCc3ccccc32)cc1` (stereo unspecified) | N | N | N |
| 25 | `Cc1cccc(C(=O)N2CC[C@@H](c3ccc4ccccc4c3)[C@H](O)C2)n1` | N | N | N |
| 26 | `CN1CCN2CCN(C(=O)CC3=CCNCC3)CC2C1` (stereo unspecified) | N | N | N |
| 27 | `CNC(=O)CN1CCN(c2nc(C)cc(NC)n2)CC(O)C1` (stereo unspecified) | N | N | N |
| 28 | `COc1ccc(-c2nc3nc(C)cc(Nc4ccccc4)n3n2)cc1` | - | N | N |
| 29 | `Cc1onc(C(=O)N2CCCN(Cc3ccc(F)cc3)C(C(C)C)C2)c1CO` (stereo unspecified) | N | N | N |
| 30 | `COc1ccccc1NC(c1ccccc1)c1nnc(-c2ccccc2Cl)o1` (stereo unspecified) | N | N | N |
| 31 | `Cc1cc(N2CCN(C(CO)CO)CC2)nc(-c2ccccc2)n1` | N | N | N |
| 32 | `O=C1CC(c2ccccc2)CC(=O)C1=CNCCN1CCNCC1` (stereo unspecified) | N | N | N |
| 33 | `COCCN1CCCC(O)(CN2CCN(c3cc(C)nc(N)n3)CC2)C1=O` (stereo unspecified) | N | N | N |
| 34 | `COc1cc(-c2nc3[nH]cnn3c2Nc2ccc(C(C)C)cc2)ccc1O` | N | N | N |
| 35 | `CCNc1nc(N(CC)CC)nc(-n2cnc(SC)n2)n1` | - | N | N |
| 36 | `CCOC(=O)N1CCN(c2c(NCCCc3ccccc3)c(=O)c2=O)CC1` | - | N | N |
| 37 | `O=C1COc2cccnc2N1` | N | N | N |
| 38 | `O=C(O)c1c(S(=O)(=O)Nc2ccc3c(c2)OCCO3)sc2c1CCNC2` | N | N | N |
| 39 | `CCN(CC)CC#CCOC(=O)C(O)(c1ccccc1)C1CCCCC1` (stereo unspecified) | N | N | N |
| 40 | `CC1(C)CC(=O)C2=C(C1)OC(N)=C(C#N)C2c1ccc2c(c1Br)OCO2` (stereo unspecified) | N | N | N |
| 41 | `COc1ccccc1NC1CCCCC1NS(=O)(=O)c1ccc(Cl)cc1` (stereo unspecified) | - | N | N |
| 42 | `CCCNCc1ncc(C)c(OC)c1C.Cl.Cl` | N | N | N |
| 43 | `O=C1CC(NCc2ccco2)C(=O)N1c1ccc(Br)cc1` (stereo unspecified) | N | N | N |
| 44 | `C=CCc1cc(-c2cc(-c3cccnc3)nc(N)c2C#N)ccc1O` | N | N | N |
| 45 | `O=S1(=O)C[C@H](NCc2cccnc2)[C@@H](S(=O)(=O)c2ccc(F)cc2)C1` | - | N | N |
| 46 | `O=C(c1nc2ccc(Cl)cn2c1F)N1CCNC(c2ccccc2)C1` (stereo unspecified) | N | N | N |
| 47 | `COCCN1C(=O)[C@H]2CC[C@@H]1CN(Cc1c(CO)cnc(C)c1O)C2` | N | N | N |
| 48 | `CCCOc1ccc(CN2CCN(C(C)=O)CC(O)C2)cc1Cl` (stereo unspecified) | N | N | N |
| 49 | `Cc1ccc2nc(C3=C(N)N(C4CCCC4)CC3=O)[nH]c2c1` | - | N | N |
| 50 | `CCOC(=O)c1sc(NC(=O)CSc2nnc(N)s2)nc1C` | N | N | N |
| 51 | `Cc1cccc(Cn2nnc(C(=O)Nc3cc(C)cc(C)c3)c2N)c1` | N | N | N |
| 52 | `COc1ccc(-c2c(Nc3ccc(OC)c(OC)c3)c(=O)c2=O)cc1` | - | N | N |
| 53 | `CCOc1ccc([C@@H]2C[C@H](c3ccc(C)cc3)n3nc(N)nc3N2)cc1` | N | N | N |
| 54 | `COc1cccc(C2=NS(=O)(=O)N(C)C(C(=O)NC(C)(C)CO)=C2)c1` | - | N | N |
| 55 | `NCCn1cc(C(=O)N[C@@H]2CCC[C@H]2OCc2ccccc2)nn1` | N | N | N |
| 56 | `Cc1cc(C)n(-c2nc3ccccc3nc2Nc2ccc(F)cc2F)n1` | N | N | N |
| 57 | `Nc1c(N2CCCCC2)c2ccccc2oc1=O` | N | N | N |
| 58 | `COc1ccc(C(N)CC(=O)N2CCC3(CC2)CC(=O)N(C)C3)cc1OC` (stereo unspecified) | N | N | N |
| 59 | `CC(C)c1n[nH]c2c1C(c1ccc(F)c(Br)c1)C(C#N)=C(N)O2` (stereo unspecified) | N | N | N |
| 60 | `Nc1nc2c(c(C(=O)N3CCCC(CNC(=O)c4ccco4)C3)n1)CCCC2` (stereo unspecified) | N | N | N |
| 61 | `CCn1c(C)c(C=Cc2nc3ccccc3c(=O)n2CCCO)c2ccccc21` | - | N | N |
| 62 | `N#Cc1nc(C=Cc2ccc(F)cc2)oc1NCC1CCCO1` (stereo unspecified) | - | N | N |
| 63 | `CNc1oc(-c2ccc(S(=O)(=O)N3CCC(C)CC3)cc2)nc1C#N` | - | N | N |
| 64 | `CCOC(=O)C1=C(C)OC(N)=C(C#N)C1c1c(C)c(C)cc(C)c1C` (stereo unspecified) | N | N | N |
| 65 | `O=c1cc(-c2ccccc2Cl)nc(-c2ccc(CN3CCC[C@H]3CO)cc2)[nH]1` | N | N | N |
| 66 | `CCCc1n[nH]c2c1C(c1ccc(C)cc1)C(C#N)=C(N)O2` (stereo unspecified) | N | N | N |
| 67 | `N#Cc1c(N(CC(=O)[O-])CC(=O)[O-])sc(C(=O)[O-])c1CC(=O)[O-].O.O.O.O.O.O.O.[Sr+2].[Sr+2]` | N | N | N |

Once more, the final 6:

Compound	SAM-II	TPP	PreQ1
N#Cc1nc(C=Cc2ccc(F)cc2)oc1NCC1CCCO1 (stereo unspecified)	-	N	N
CNc1oc(-c2ccc(S(=O)(=O)N3CCC(C)CC3)cc2)nc1C#N	-	N	N
CCOC(=O)C1=C(C)OC(N)=C(C#N)C1c1c(C)c(C)cc(C)c1C (stereo unspecified)	N	N	N
O=c1cc(-c2ccccc2Cl)nc(-c2ccc(CN3CCC[C@H]3CO)cc2)[nH]1	N	N	N
CCCc1n[nH]c2c1C(c1ccc(C)cc1)C(C#N)=C(N)O2 (stereo unspecified)	N	N	N
N#Cc1c(N(CC(=O)[O-])CC(=O)[O-])sc(C(=O)[O-])c1CC(=O)[O-].O.O.O.O.O.O.O.[Sr+2].[Sr+2]	N	N	N